These are yes or no findings as the source states them, for the method shown. Some binding calls cover weakened binding; strength is not graded here.
Assays:
YB-1 protein = YB-1 protein (UniProt P67809); assay: immunoprecipitation with STK32C antibody, detection of YB-1 (FIG. 19a)
[1] = biological target: serine threonine kinase 32C (STK32C) (UniProt Q86UX6); assay: reciprocal immunoprecipitation using YB-1, detection of STK32C (FIG. 19b)

Chains of the proteins cited; added tags and fusions are not shown.
UniProt P67809: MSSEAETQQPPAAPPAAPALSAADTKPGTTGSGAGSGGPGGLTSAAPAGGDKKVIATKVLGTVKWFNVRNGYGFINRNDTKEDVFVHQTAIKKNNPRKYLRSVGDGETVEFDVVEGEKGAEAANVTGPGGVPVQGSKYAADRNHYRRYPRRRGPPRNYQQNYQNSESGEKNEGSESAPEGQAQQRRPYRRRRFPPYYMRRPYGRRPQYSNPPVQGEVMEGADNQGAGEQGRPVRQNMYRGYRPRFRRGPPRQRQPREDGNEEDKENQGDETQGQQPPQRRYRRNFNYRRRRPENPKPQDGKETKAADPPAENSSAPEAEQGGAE
UniProt Q86UX6: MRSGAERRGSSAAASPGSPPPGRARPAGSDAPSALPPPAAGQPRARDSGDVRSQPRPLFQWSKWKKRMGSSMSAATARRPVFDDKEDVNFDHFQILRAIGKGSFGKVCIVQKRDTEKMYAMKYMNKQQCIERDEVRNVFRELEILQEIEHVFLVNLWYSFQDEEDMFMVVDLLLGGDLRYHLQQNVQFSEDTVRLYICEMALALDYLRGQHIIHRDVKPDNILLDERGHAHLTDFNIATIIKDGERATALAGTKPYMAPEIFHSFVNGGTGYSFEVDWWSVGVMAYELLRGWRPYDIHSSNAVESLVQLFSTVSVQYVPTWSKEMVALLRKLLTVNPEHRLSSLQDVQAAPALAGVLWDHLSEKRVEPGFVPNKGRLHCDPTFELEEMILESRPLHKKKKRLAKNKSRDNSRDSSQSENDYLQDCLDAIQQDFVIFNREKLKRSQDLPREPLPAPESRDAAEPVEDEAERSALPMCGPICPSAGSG

serine threonine kinase 32C (STK32C) (from UniProt Q86UX6 1-486) (enzyme)
binding (YB-1 protein): binds

YB-1 protein (from UniProt P67809 1-324)
binding [1]: binds

Source: patent US20190169692A1
